Assay results reported in the supplement of paper PMC10849652.
The other results are listed elsewhere or left out.

By UniProt entry, the sequences of proteins in these tests, tags left out. Where a name states a change or a piece, a line headed by the entry shows the natural chain unless it says otherwise.
UniProt Q9BUV8: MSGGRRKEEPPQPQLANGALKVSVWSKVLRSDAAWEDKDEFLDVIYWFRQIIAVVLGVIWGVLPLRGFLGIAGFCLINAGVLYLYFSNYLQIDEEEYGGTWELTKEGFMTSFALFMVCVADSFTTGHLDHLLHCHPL
UniProt Q6K0P9: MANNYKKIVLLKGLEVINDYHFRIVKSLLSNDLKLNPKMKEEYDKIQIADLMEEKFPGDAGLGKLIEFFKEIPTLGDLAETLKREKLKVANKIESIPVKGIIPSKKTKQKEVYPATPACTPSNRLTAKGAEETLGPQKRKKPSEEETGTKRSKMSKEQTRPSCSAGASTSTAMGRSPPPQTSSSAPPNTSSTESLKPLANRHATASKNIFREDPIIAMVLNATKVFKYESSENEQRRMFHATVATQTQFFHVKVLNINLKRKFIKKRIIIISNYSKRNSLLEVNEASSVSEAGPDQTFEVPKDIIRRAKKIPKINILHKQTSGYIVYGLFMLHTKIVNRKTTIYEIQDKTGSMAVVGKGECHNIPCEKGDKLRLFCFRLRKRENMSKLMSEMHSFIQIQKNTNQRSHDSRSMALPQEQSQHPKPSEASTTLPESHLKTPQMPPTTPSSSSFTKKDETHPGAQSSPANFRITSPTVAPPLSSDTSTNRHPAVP
UniProt Q96D70: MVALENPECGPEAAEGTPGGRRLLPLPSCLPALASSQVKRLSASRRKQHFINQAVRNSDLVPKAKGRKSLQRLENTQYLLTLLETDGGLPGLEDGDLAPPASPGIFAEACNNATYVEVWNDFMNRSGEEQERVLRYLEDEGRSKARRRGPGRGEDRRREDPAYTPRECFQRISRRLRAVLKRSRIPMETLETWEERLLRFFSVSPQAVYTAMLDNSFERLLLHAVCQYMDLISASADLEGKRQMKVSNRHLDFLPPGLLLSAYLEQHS
UniProt O15315: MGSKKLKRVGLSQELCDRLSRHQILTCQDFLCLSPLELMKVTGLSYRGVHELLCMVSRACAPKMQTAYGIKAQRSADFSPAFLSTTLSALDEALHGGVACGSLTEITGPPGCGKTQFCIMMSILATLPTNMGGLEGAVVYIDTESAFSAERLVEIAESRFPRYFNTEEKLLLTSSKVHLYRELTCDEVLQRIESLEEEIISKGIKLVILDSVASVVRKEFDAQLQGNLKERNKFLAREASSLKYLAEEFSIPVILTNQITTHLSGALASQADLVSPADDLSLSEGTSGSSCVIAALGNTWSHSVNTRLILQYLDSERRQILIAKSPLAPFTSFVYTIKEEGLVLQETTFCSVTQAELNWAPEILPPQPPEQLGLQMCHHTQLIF
UniProt Q9HD47: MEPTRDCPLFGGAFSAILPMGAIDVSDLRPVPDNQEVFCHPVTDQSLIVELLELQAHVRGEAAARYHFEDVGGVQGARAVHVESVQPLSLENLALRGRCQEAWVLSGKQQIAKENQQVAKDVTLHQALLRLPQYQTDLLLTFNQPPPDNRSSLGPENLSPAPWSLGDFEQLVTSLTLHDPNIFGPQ
UniProt Q7Z5J4: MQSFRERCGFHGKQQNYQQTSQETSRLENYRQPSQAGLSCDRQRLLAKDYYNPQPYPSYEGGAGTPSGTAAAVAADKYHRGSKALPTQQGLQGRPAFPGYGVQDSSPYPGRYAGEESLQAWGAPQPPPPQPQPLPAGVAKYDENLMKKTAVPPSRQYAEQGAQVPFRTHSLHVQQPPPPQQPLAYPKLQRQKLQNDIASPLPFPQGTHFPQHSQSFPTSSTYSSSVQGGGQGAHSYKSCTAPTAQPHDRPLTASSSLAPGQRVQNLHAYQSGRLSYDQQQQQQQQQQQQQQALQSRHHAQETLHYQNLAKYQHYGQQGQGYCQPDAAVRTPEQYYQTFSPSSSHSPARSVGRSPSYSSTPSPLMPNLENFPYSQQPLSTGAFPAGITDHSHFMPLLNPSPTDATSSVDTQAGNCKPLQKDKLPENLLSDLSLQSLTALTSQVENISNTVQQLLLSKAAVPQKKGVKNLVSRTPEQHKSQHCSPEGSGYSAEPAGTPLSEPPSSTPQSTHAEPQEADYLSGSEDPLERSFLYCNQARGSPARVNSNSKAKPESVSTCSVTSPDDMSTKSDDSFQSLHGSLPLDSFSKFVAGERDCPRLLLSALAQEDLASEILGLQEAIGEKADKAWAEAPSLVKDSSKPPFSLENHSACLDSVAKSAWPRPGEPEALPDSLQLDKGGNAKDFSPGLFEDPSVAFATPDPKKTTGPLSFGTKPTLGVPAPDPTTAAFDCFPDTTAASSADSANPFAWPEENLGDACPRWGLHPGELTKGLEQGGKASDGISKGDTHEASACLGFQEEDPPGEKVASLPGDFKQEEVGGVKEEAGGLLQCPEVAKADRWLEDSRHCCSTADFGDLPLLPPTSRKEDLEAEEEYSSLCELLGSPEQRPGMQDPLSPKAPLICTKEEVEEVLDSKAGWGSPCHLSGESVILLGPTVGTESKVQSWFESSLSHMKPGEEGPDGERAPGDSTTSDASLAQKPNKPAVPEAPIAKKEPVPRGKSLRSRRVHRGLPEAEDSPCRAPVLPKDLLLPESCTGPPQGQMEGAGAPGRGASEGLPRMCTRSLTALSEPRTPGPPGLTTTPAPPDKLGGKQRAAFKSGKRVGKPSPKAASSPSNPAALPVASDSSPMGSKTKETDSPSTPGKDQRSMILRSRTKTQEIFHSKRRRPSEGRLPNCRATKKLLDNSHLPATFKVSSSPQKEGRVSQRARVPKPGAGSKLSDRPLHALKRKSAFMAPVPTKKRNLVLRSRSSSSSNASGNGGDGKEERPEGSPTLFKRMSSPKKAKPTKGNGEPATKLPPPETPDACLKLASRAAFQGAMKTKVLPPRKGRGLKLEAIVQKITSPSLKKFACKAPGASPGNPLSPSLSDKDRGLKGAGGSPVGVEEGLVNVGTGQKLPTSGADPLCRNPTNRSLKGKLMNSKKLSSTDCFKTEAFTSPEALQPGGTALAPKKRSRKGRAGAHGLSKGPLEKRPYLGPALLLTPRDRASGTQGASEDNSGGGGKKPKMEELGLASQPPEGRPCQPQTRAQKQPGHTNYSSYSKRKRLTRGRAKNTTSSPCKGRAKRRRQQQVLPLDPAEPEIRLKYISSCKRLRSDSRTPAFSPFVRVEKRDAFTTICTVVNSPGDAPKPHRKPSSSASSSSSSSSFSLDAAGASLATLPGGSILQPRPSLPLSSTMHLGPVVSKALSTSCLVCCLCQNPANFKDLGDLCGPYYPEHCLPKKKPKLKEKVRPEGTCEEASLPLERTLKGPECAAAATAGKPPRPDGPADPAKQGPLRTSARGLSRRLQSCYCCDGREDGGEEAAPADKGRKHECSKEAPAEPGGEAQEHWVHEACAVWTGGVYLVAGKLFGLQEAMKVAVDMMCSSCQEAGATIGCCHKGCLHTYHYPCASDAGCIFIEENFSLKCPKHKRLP
UniProt P20337: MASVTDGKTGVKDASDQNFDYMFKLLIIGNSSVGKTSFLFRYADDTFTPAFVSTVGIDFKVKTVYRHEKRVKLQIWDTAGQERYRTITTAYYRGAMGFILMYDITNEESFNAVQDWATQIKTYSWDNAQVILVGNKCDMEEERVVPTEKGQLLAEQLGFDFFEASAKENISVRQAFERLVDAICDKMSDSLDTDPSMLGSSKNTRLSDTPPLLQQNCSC
UniProt P54725: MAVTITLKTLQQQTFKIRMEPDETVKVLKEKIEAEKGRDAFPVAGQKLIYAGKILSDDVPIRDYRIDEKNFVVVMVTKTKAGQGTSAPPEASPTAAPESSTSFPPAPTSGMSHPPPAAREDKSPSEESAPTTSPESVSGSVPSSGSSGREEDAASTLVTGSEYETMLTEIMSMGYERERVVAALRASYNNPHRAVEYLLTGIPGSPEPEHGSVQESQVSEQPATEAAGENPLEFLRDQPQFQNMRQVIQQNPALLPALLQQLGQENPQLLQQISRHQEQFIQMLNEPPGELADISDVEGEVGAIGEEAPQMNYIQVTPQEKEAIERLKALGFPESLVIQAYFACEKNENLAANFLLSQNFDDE
UniProt Q86YS6: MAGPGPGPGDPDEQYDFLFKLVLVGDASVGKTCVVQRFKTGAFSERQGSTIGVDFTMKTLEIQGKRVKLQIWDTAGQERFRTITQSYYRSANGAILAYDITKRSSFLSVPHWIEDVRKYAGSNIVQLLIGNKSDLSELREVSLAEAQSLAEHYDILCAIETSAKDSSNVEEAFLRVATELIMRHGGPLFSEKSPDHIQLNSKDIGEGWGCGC
UniProt Q4G0T1: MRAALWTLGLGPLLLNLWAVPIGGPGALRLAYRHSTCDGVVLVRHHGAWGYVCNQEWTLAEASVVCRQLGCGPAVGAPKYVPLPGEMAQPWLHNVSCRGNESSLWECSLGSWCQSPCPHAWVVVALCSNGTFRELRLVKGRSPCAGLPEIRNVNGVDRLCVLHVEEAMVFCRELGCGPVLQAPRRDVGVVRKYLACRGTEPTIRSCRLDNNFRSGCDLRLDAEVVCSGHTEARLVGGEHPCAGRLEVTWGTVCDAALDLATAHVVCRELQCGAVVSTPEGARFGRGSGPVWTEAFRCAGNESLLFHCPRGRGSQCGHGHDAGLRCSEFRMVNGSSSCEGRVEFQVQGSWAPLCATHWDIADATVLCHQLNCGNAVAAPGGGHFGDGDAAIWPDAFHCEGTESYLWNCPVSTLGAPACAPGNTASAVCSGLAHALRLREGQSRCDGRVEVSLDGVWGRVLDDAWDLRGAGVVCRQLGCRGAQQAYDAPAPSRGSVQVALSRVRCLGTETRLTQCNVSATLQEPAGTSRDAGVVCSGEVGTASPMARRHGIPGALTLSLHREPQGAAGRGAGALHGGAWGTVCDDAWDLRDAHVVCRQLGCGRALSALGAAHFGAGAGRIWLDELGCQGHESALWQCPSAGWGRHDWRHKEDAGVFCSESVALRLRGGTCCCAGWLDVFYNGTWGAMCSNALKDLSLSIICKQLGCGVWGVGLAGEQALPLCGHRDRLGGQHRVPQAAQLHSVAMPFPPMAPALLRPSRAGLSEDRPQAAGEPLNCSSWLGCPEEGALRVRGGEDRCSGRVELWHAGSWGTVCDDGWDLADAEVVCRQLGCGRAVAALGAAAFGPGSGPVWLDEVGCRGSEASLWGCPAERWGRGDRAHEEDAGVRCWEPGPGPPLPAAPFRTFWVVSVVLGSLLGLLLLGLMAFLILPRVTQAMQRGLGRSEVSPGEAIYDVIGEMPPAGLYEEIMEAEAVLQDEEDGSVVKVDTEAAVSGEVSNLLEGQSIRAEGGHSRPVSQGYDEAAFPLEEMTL

Key:
Assay in all cases: log2 fold change, soluble protein after heating vs DMSO (PISA); higher = thermal stabilisation; K562 lysate, 10 uM; active = over 0.2 and 3.5 SD of the protein, either way, in both replicates (recomputed)
lapatinib = compound: CS(=O)(=O)CCNCc1ccc(-c2ccc3ncnc(Nc4ccc(OCc5cccc(F)c5)c(Cl)c4)c3c2)o1 [lapatinib]
In short: (§1)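 K562 pellets were dounce-homogenised in PBS pH 7.4 with 1 mM MgCl2, and the crude extract at 1 mg/mL protein was treated with 10 μM compound for 30 min. Aliquots were heated for 3 min across 48°C-58°C, pooled, and brought to 0.5% NP-40 at 4°C; soluble protein was the supernatant after 21,000xg for 90 min. Soluble protein was quantified by TMTpro 16plex LC-MS/MS with channel sums equalised, and reported as log2 fold change in thermal stability against DMSO controls, with values from duplicates.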

pictilisib = compound: CS(=O)(=O)N1CCN(Cc2cc3nc(-c4cccc5[nH]ncc45)nc(N4CCOCC4)c3s2)CC1 [pictilisib]
In short: as §1

[1] = compound: C[C@H](C1=CC=C(C=C1)C(=O)NC2=C3C=CNC3=NC=C2)N
In short: as §1

duvelisib = compound: C[C@H](Nc1ncnc2nc[nH]c12)c1cc2cccc(Cl)c2c(=O)n1-c1ccccc1 [duvelisib]
In short: as §1

gandotinib = compound: Cc1cc(Nc2cc(CN3CCOCC3)c3nc(C)c(Cc4ccc(Cl)cc4F)n3n2)n[nH]1 [gandotinib]
In short: as §1

tozasertib = compound: Cc1cc(Nc2cc(N3CCN(C)CC3)nc(Sc3ccc(NC(=O)C4CC4)cc3)n2)n[nH]1 [tozasertib]
In short: as §1

bafetinib = compound: Cc1ccc(NC(=O)c2ccc(CN3CC[C@H](N(C)C)C3)c(C(F)(F)F)c2)cc1Nc1nccc(-c2cncnc2)n1 [bafetinib]
In short: as §1

[2] = compound: Cc1cccc(CC(=O)N2CCc3c2ccc(-c2cn(C)c4ncnc(N)c24)c3F)n1
In short: as §1

nilotinib = compound: Cc1cn(-c2cc(NC(=O)c3ccc(C)c(Nc4nccc(-c5cccnc5)n4)c3)cc(C(F)(F)F)c2)cn1 [nilotinib]
In short: as §1

[3] = compound: Cc1nc(Nc2n[nH]c3c2CN(C(=O)N[C@H](CN(C)C)c2ccccc2)C3(C)C)c2sccc2n1
In short: as §1

dasatinib = compound: Cc1nc(Nc2ncc(C(=O)Nc3c(C)cccc3Cl)s2)cc(N2CCN(CCO)CC2)n1 [dasatinib]
In short: as §1

[4] = compound: Cc1ncc(-c2ccnc(Nc3ccc(S(C)(=O)=O)cc3)n2)n1C(C)C
In short: as §1

[5] = compound: Cn1cc(-c2ccc3c(c2)CCN3C(=O)Cc2cccc(C(F)(F)F)c2)c2c(N)ncnc21
In short: as §1

tipifarnib = compound: Cn1cncc1[C@@](N)(c1ccc(Cl)cc1)c1ccc2c(c1)c(-c1cccc(Cl)c1)cc(=O)n2C [tipifarnib]
In short: as §1

[6] = compound: NC(=O)c1cnc(N[C@@H]2CCCC[C@@H]2N)nc1Nc1cccc(-n2nccn2)c1
In short: as §1

[7] = compound: NC1(c2ccc(-c3nc4ccn5c(=O)[nH]nc5c4cc3-c3ccccc3)cc2)CCC1
In short: as §1

crizotinib = compound: C[C@@H](Oc1cc(-c2cnn(C3CCNCC3)c2)cnc1N)c1c(Cl)ccc(F)c1Cl [crizotinib]
In short: as §1

doramapimod = compound: Cc1ccc(-n2nc(C(C)(C)C)cc2NC(=O)Nc2ccc(OCCN3CCOCC3)c3ccccc23)cc1 [doramapimod]
In short: as §1

quisinostat = compound: Cn1cc(CNCC2CCN(c3ncc(C(=O)NO)cn3)CC2)c2ccccc21 [quisinostat]
In short: as §1

[8] = compound: NC(=O)Nc1cc(-c2cccc(F)c2)sc1C(=O)N[C@H]1CCCNC1
In short: as §1

Measured: log2 fold change

RAB5IF isoform 5 (UniProt Q9BUV8)
inactive: lapatinib -0.043 | pictilisib -0.122 | duvelisib -0.071 | gandotinib -0.234 | tozasertib 0 | bafetinib 0.221 | [2] -0.357 | nilotinib -0.033 | [3] -0.033 | dasatinib -0.108 | [4] -0.003 | [5] 0.06 | tipifarnib -0.189 | [6] 0.026 | [7] -0.096
active: [1] 0.753

PYHIN1 (UniProt Q6K0P9)
inactive: lapatinib -0.136 | crizotinib -0.054 | duvelisib 0.089 | doramapimod -0.142 | nilotinib -0.111 | [3] 0.07 | dasatinib -0.017 | [4] 0.312 | [5] 0.086 | quisinostat 0.055 | tipifarnib 0.191 | [8] -0.192 | [6] -0.114

RACK1 (UniProt D6RF23)
inactive: pictilisib 0.019 | tozasertib 0.191 | bafetinib -0.003 | nilotinib -0.322 | [3] -0.128 | [4] -0.031 | tipifarnib 0.096

R3HDM4 (UniProt Q96D70)
inactive: crizotinib -0.023 | [1] 0.155 | duvelisib 0.035 | gandotinib -0.074 | tozasertib -0.028 | doramapimod -0.073 | [2] 0.052 | nilotinib 0 | [3] 0.089 | dasatinib 0.041 | [4] -0.012 | [5] 0.033 | quisinostat -0.005 | tipifarnib -0.114 | [8] 0.033 | [7] -0.048

RAD51B (UniProt O15315)
inactive: pictilisib -0.188 | crizotinib -0.126 | [1] 0.009 | duvelisib 0.006 | gandotinib 0.014 | tozasertib -0.017 | doramapimod -0.117 | bafetinib -0.072 | [2] 0.126 | nilotinib -0.017 | [3] -0.038 | dasatinib -0.081 | [4] 0.074 | [5] 0.014 | quisinostat -0.117 | tipifarnib 0.015 | [8] -0.057 | [7] -0.054

RANGRF (UniProt Q9HD47)
inactive: lapatinib 0.035 | crizotinib -0.032 | duvelisib -0.237 | doramapimod -0.006 | dasatinib 0.082 | [5] 0.223 | quisinostat 0.012 | [8] -0.018 | [6] -0.03 | [7] 0.147

Taken from the entries so far (3 entries):
R3HDM4 (UniProt Q96D70)
inactive: crizotinib -0.023 | [1] 0.155 | duvelisib 0.035 | gandotinib -0.074 | tozasertib -0.028 | doramapimod -0.073 | [2] 0.052 | nilotinib 0 | [3] 0.089 | dasatinib 0.041 | [4] -0.012 | [5] 0.033 | quisinostat -0.005 | tipifarnib -0.114 | [8] 0.033 | [7] -0.048

RAD51B (UniProt O15315)
inactive: pictilisib -0.188 | crizotinib -0.126 | [1] 0.009 | duvelisib 0.006 | gandotinib 0.014 | tozasertib -0.017 | doramapimod -0.117 | bafetinib -0.072 | [2] 0.126 | nilotinib -0.017 | [3] -0.038 | dasatinib -0.081 | [4] 0.074 | [5] 0.014 | quisinostat -0.117 | tipifarnib 0.015 | [8] -0.057 | [7] -0.054

RANGRF (UniProt Q9HD47)
inactive: lapatinib 0.035 | crizotinib -0.032 | duvelisib -0.237 | doramapimod -0.006 | dasatinib 0.082 | [5] 0.223 | quisinostat 0.012 | [8] -0.018 | [6] -0.03 | [7] 0.147

The list continues:

QARS1, A0A0U1RR66
inactive: lapatinib -0.213 | [6] -0.049

RAI1 (UniProt Q7Z5J4)
inactive: crizotinib -0.026 | tozasertib 0.233 | doramapimod 0.121 | quisinostat 0.129 | [8] -0.198

RAB3B (UniProt P20337)
inactive: crizotinib 0.007 | [1] -0.048 | gandotinib 0.083 | doramapimod -0.024 | [2] -0.036 | quisinostat 0.004 | [8] -0.007

RAD23A isoform 3 (UniProt P54725)
inactive: lapatinib -0.257 | [1] -0.125 | gandotinib 0.006 | [2] -0.047 | nilotinib -0.019 | [3] -0.194 | [4] -0.036 | tipifarnib 0.225 | [6] -0.099 | [7] -0.178

RAB43 (UniProt Q86YS6)
inactive: pictilisib -0.028 | [1] -0.075 | duvelisib -0.164 | gandotinib -0.097 | tozasertib 0.053 | bafetinib 0.048 | [2] 0.05 | nilotinib 0.12 | [3] 0.07 | dasatinib 0.072 | [4] -0.041 | [5] 0.049 | tipifarnib -0.115 | [7] -0.037

NA (UniProt Q4G0T1)
inactive: crizotinib 0.023 | [1] -0.044 | duvelisib 0.035 | gandotinib -0.015 | doramapimod 0.042 | [2] 0.034 | dasatinib 0.054 | [5] 0.095 | quisinostat 0.034 | [8] 0.054 | [7] 0.062

QSER1, A0A3B3IRW6
inactive: lapatinib -0.04 | crizotinib -0.072 | duvelisib 0.005 | tozasertib -0.033 | doramapimod 0 | nilotinib -0.028 | [3] 0.056 | dasatinib 0.018 | [4] 0.042 | [5] 0.052 | quisinostat -0.117 | tipifarnib -0.048 | [8] 0.064 | [6] -0.027 | [7] -0.048
